Among the data in PMC7753843 are binding values, retold here.

One assay addresses GST‐RAR fusion protein. Description: pull-down; GST pull‐down: GST‐RAR fusion protein with TNT T7 translation products, detected by Western blotting; only the target purified.
Assay [1] addresses retinoic acid receptor (RAR), endogenous in HCC tumour tissues (human (endogenous in HCC tumour tissue)). Description: co-IP; CoIP in clinical HCC tissue specimens (tumour tissues with high serum AFP).

These are yes or no findings as the source states them, for the method shown. Binding seen in cells or lysates may run through a third protein. A result given as binding can be weak or reduced; the word gives no strength.

B1: AFP, TNT system translation product (protein, UniProt P02771 1-609)
chain: MKWVESIFLIFLLNFTESRTLHRNEYGIASILDSYQCTAEISLADLATIFFAQFVQEATYKEVSKMVKDALTAIEKPTGDEQSSGCLENQLPAFLEELCHEKEILEKYGHSDCCSQSEEGRHNCFLAHKKPTPASIPLFQVPEPVTSCEAYEEDRETFMNKFIYEIARRHPFLYAPTILLWAARYDKIIPSCCKAENAVECFQTKAATVTKELRESSLLNQHACAVMKNFGTRTFQAITVTKLSQKFTKVNFTEIQKLVLDVAHVHEHCCRGDVLDCLQDGEKIMSYICSQQDTLSNKITECCKLTTLERGQCIIHAENDEKPEGLSPNLNRFLGDRDFNQFSSGEKNIFLASFVHEYSRRHPQLAVSVILRVAKGYQELLEKCFQTENPLECQDKGEEELQKYIQESQALAKRSCGLFQKLGEYYLQNAFLVAYTKKAPQLTSSELMAITRKMAATAATCCQLSEDKLLACGEGAADIIIGHLCIRHEMTPVNPGVGQCCTSSYANRRPCFSSLVVDETYVPPAFSDDKFIFHKDLCQAQGVALQTMKQEFLINLVKQKPQITEEQLEAVIADFSGLLEKCCQGQEQEVCFAEEGQKLISKTRAALGV
On to B1, for which the binding result with GST‐RAR fusion protein was “binds”.

B2: AFP, endogenous in HCC tumour tissues with high serum AFP (protein, UniProt P02771 19-609)
chain: RTLHRNEYGIASILDSYQCTAEISLADLATIFFAQFVQEATYKEVSKMVKDALTAIEKPTGDEQSSGCLENQLPAFLEELCHEKEILEKYGHSDCCSQSEEGRHNCFLAHKKPTPASIPLFQVPEPVTSCEAYEEDRETFMNKFIYEIARRHPFLYAPTILLWAARYDKIIPSCCKAENAVECFQTKAATVTKELRESSLLNQHACAVMKNFGTRTFQAITVTKLSQKFTKVNFTEIQKLVLDVAHVHEHCCRGDVLDCLQDGEKIMSYICSQQDTLSNKITECCKLTTLERGQCIIHAENDEKPEGLSPNLNRFLGDRDFNQFSSGEKNIFLASFVHEYSRRHPQLAVSVILRVAKGYQELLEKCFQTENPLECQDKGEEELQKYIQESQALAKRSCGLFQKLGEYYLQNAFLVAYTKKAPQLTSSELMAITRKMAATAATCCQLSEDKLLACGEGAADIIIGHLCIRHEMTPVNPGVGQCCTSSYANRRPCFSSLVVDETYVPPAFSDDKFIFHKDLCQAQGVALQTMKQEFLINLVKQKPQITEEQLEAVIADFSGLLEKCCQGQEQEVCFAEEGQKLISKTRAALGV
For B2, the binding result in assay [1] was “binds”.
